Results reported in paper PMC4990422, “Coupling between the DEAD-box RNA helicases Ded1p and eIF4A” (eLife, 2016).

Amino acid sequences for entries named in this document (tags omitted). A change or cut given only in a name is not applied to a line headed by its entry.
UniProt P06634: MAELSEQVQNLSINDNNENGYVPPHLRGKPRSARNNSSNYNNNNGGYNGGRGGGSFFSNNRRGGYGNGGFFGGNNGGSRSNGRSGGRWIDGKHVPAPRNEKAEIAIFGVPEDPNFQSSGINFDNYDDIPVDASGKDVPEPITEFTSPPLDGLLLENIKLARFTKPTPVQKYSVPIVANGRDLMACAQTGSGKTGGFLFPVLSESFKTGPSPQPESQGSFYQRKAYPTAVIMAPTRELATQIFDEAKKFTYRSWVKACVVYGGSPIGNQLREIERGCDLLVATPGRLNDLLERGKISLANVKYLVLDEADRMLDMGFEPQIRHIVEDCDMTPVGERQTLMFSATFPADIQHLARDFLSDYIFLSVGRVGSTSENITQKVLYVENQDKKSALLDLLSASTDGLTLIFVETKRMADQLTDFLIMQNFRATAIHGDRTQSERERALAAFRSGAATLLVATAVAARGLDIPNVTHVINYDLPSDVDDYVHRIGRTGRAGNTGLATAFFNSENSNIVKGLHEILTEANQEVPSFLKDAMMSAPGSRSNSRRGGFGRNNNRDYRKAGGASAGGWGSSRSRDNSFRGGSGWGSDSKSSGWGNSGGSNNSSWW

Molecular target: Ded1p WT (Saccharomyces cerevisiae) (UniProt P06634)
Test: RNA-stimulated ATPase, RNA titration (apparent affinity, Michaelis-Menten)
Conditions: ATP, 30 and 37 C; RNA-stimulated ATPase at 30 and 37 C; recombinant protein; protein details: N-terminal His6

GCGUCUUUACGGUGCUUAAAACAAAACAAAACAAAACAAAA / AGCACCGUAAAGACGC [16 bp, 25 nt 3'-overhang RNA]
binding result: binds

Construct, isoform or probe ends are uncertain for at least one entry. At least one verdict rests on a figure or table, not on a statement of the authors.
